From patent publication US20250179167A1, “IL-6 INHIBITOR AS TREATMENT FOR NEPHROPATHY” (YALE UNIVERSITY, priority 2022, published 2025)

Columns and labels:
[1] = test system: control and GR^ECKO mice; assay: Wnt inhibitor (LGK974) treatment in nondiabetic and diabetic control and GR^ECKO mice; format: in vivo, mouse; settings: at the time of sacrifice, among the groups (control and GR^ECKO mice), oral gavage 8 weeks
Description: (FIG. 5A) Schematic diagram showing the treatment protocol of Wnt inhibition in diabetic control and GR^ECKO mice. (FIG. 5B) Physiological parameters including body weight, blood glucose and kidney weight/body weight were analyzed. N=6 biologically independent mice/group combined from two experiments. (FIG. 5C) Masson trichrome, Sirius red and PAS staining as well as immunohistochemical analysis of β-catenin levels in the kidneys of wnti-treated diabetic control and GR^ECKO mice. Representative images are shown; original magnification 300×. Relative area of fibrosis (%) and relative collagen deposition (%) were measured using the ImageJ program. N=8 biologically independent mice/group combined from three experiments were analyzed. Scale bar 50 μm. Data are mean SEM. […]
Physiological parameters including body weight, blood glucose, and kidney weight/body weight are shown. n=7 biologically independent mice/group combined from two experiments were analyzed. […]
FIGS. 27A-27B Histological analysis of kidneys from Wnt inhibitor-treated nondiabetic control and GR^ECKO mice. […] Area of fibrosis (%) and relative collagen deposition (%) were measured using the ImageJ program. N=5 biologically independent mice/group were analyzed. […] Scale bar 30 μm. n=6 biologically independent mice/group combined from two independent experiments were analyzed. […]

[2] = test system: control littermates and GR^ECKO mice; assay: Etomoxir and C75 in non-diabetic and diabetic control littermates and GR^ECKO mice; format: in vivo, mouse; settings: non-diabetic or diabetic control littermates and GR^ECKO mice
Description: FIGS. 6A-6E show metabolic reprogramming by loss of endothelial GR loss worsens diabetic kidney disease. (FIG. 6A) Radiolabeled ^14C-palmitate uptake analysis in isolated endothelial cells from kidneys of nondiabetic and diabetic control, GR^ECKO Apoe^−/− and DKO mice. CPM of each sample were counted. Data were normalized to μg protein. Fold activity is presented. Endothelial cells isolated and cultured from six biologically independent mice/group were performed in triplicate and analyzed for ^14C-palmitate uptake analysis. Data are mean±SEM. (FIG. 6B) Radiolabeled [^14C]palmitate oxidation and [^14CO2]release were measured in isolated endothelial cells from kidneys of nondiabetic and diabetic control, GR^ECKO Apoe^−/− and DKO mice. CPM of each sample was counted. Data were normalized to μg protein. Fold activity is presented. Endothelial cells isolated and cultured from six biologically independent mice/group were performed in triplicate and analyzed for ^14C-palmitate uptake analysis. Data are mean±SEM. (FIG. 6C) Body weight, blood glucose, and kidney weight/body weight were measured at the end of these experiments. N=6 biologically independent mice from two experiments. Ex vivo radiolabeled [^14C]palmitate oxidation and [^14CO2]release were measured in kidneys. CPM of each sample was counted. Isolated endothelial cells from five biologically independent mice/group were analyzed in triplicate. Data are mean±SEM. (FIG. 6D) Masson trichrome, Sirius red and PAS staining were analyzed in the kidneys of control, etomoxir- and C75-treated diabetic mice. Representative images are shown; original magnification 300×. Relative area of fibrosis (%) and relative collagen deposition (%) were measured using the ImageJ program. N=8 biologically independent mice per/group from three independent experiments were analyzed. Scale bar 50 μm. Data are mean±SEM. (FIG. 6E) Immunohistochemical analysis of CPT1a and β-catenin. Representative images are shown; original magnification 300×. Scale bar 50 μm. N=6 biologically independent mice per group from three independent experiments. For all panels one-way ANOVA with Tukey post-test was used for analysis of statistical significance. Significance—*p<0.05, **p<0.01, ***p<0.001.
Body weight, blood glucose, and kidney/body weight ratio and fatty acid oxidation as represented by [^14CO2]release are shown. [^14C]palmitate was used as substrate and CPM counts were normalized by protein. n=6 biologically independent mice/group. Data are mean±SEM. One-way Anova with Tukey multiple comparison post hoc test was used to calculate statistical significance. Significance—*p<0.05.
Masson trichrome staining (upper panel) and Sirius red (lower panels) in etomoxir- and C75-treated non-diabetic control and GR^ECKO mice. Etomoxir (20 mg/kg) and C75 (15 mg/kg) were dosed (IP) three times per week for 3 weeks in GR^ECKO and control littermates. Representative images are shown; original magnification 400×. Area of fibrosis (%) and relative collage deposition (%) in n=6 biologically independent mice/group were combined from two independent experiments. Scale bar 50 μm. Data are mean±SEM. One-way Anova with Tukey multiple comparison post hoc test was used to calculate statistical significance. Significance-**p<0.01.
Animal Experimentation. All experiments were performed according to a protocol approved by the Institutional Animal Care and Use Committee at the Yale University School of Medicine and were in accordance with the National Institute of Health (NIH) Guidelines for the Care of Laboratory Animals Mice were housed at an ambient temperature of 68-79° F. with a humidity that ranged between 30%-70%. They were exposed to 12-h light-dark cycles Mice lacking the endothelial glucocorticoid receptor (GR) (known as GR^ECKO) and those lacking this receptor on the Apoe null background (DKO) were generated as previously described^25; these mice were on the C57BL/6 background. […]

SMILES	blood glucose [1]	body weight [1]	blood glucose [2]	body weight [2]	kidney weight [2]
Cc1cc(-c2ncc(CC(=O)Nc3ccc(-c4cnccn4)cn3)cc2C)ccn1 [LGK974]	no significant differences	no significant differences			
C=C1C(=O)OC(CCCCCCCC)C1C(=O)O (centres unmarked) [C75]			no significant differences	no significant differences	no significant differences
CCOC(=O)[C@@]1(CCCCCCOc2ccc(Cl)cc2)CO1 [etomoxir]			no significant differences	no significant differences	no significant differences
